The experiment deals with LasR (Pseudomonas aeruginosa transcriptional activator protein, LuxR-type quorum sensing receptor) (P. aeruginosa) (UniProt P25084). Description: condition: only with 100 μM NBD (LasR produced and measured with NBD instead of odDHL); AUC; sedimentation velocity, 141,900 x g, 20 °C, 20 mM Hepes pH 7.5, 100 mM NaCl; LasR 0.5 and 1 mg/mL produced with and in the presence of 100 μM NBD; c(S) and c(M) distributions in SEDFIT; both purified.

No constants are given. Whether binding was seen depends on the method and setting.

In publication PMC10669572, “Norlobaridone Inhibits Quorum Sensing-Dependent Biofilm Formation and Some Virulence Factors in Pseudomonas aeruginosa by Disrupting Its Transcriptional Activator Protein LasR Dimerization” (Biomolecules, 2023) one finds binding data, which are given here for one molecule.

B1: LasR (Pseudomonas aeruginosa transcriptional activator protein, LuxR-type quorum sensing receptor) (natural protein)
chain: MALVDGFLELERSSGKLEWSAILQKMASDLGFSKILFGLLPKDSQDYENAFIVGNYPAAWREHYDRAGYARVDPTVSHCTQSVLPIFWEPSIYQTRKQHEFFEEASAAGLVYGLTMPLHGARGELGALSLSVEAENRAEANRFMESVLPTLWMLKDYALQSGAGLAFEHPVSKPVVLTSREKEVLQWCAIGKTSWEISVICNCSEANVNFHMGNIRRKFGVTSRRVAAIMAVNLGLITL
notes: predicted molecular weight of the single chain 26.62 kD; Produced and kept with a small-molecule ligand: odDHL (dimer) or norlobaridone, NBD (monomer); also called LasR-odDHL; NBD-LasR; source: E. coli BL21 (pET23b, 1 mM IPTG, 18 °C overnight) in the presence of 100 μM OdDHL or 100 μM NBD; purified (heparin column, MonoQ, S200 size exclusion)
With B1, the binding result is given as “no binding”.
